Some of the results follow.

The assay deals with T1, OsSMF1 (Oryza sativa, UniProt Q6ZLB0 1-436).
T1 sequence: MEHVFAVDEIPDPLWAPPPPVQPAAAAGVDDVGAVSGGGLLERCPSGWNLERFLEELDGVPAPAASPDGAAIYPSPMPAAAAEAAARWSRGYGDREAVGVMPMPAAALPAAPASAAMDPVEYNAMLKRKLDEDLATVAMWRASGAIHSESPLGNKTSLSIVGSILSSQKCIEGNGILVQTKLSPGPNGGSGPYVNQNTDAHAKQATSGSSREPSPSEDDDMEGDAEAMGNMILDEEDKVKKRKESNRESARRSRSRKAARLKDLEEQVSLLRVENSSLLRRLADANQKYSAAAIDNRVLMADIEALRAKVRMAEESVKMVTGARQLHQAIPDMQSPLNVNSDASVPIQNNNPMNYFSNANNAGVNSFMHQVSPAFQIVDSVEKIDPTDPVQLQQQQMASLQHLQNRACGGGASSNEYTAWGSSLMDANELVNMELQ
In words: protein-binding microarray (RPBM); PBS, 2% BSA, 51.3 ng/ul salmon testes DNA, 50 uM zinc acetate, 200 nM TF, 25 C, 1 h; high values mean tight binding. The conditions noted are these: protein: recombinant; tags: N-terminal polyhistidine and DsRed monomer fusion (pET32a); chain copies: 2; label: CyDye5-dUTP incorporated in the synthesized complementary strand; 3' TTTTT single-stranded linker to array surface; dsDNA, one strand shown. The gist of the method:
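Ni–NTA purification followed expression in E. coli BL21-CodonPlus of transcription factors fused N-terminally to a polyhistidine tag and DsRed. At 200 nM in PBS with 2% BSA, salmon testes DNA and 50 µM zinc acetate, the protein was incubated for 1 h at 25 °C with a custom Agilent array that had been primer-extended with Cy5-dUTP and blocked with 2% BSA. After washing, the array was read on an Axon 4000B scanner. The binding signal is per-feature fluorescence intensity in arbitrary units.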
On to “TGCCAATGGTGTGTGCAATTGCAACATGCGTTTGGTTGTGCGGAGTCACCTAGTGCAG”, for which the binding signal was 4100 fluorescence intensity (a.u.).

Consider “GTTCCGATGCTAGTCTATGAGTTCGTCCCGAATGGAACATCGGAGTCACCTAGTGCAG”, for which the binding signal is 4300 fluorescence intensity (a.u.). Consider “GCCCCGGCGCGGCGCGCGGAGACGTGTCCCGATCCAACTCCGGAGTCACCTAGTGCAG”, for which the binding signal was 3200 fluorescence intensity (a.u.).

“TTTCTCATGCCATGCACGAATCTCAGTGTGGCGTGAATTTCGGAGTCACCTAGTGCAG”: the binding signal was 3400 fluorescence intensity (a.u.). For the sequence “CAAGAGTTTCGGATACGCACGCCACGCGCAAACCCGATCTCGGAGTCACCTAGTGCAG”, the binding signal was 3150 fluorescence intensity (a.u.). Under “TTTTGACCCGGTTTTAGCCTACGTGACGGCTAAGTCAGCGCGGAGTCACCTAGTGCAG” stands 4480 fluorescence intensity (a.u.); under “GAGATCTGCTTAACTCCAGTGCAGGTCCAAAACTCGCCTTCGGAGTCACCTAGTGCAG”, 29200 fluorescence intensity (a.u.); under “GTTTGTGTGAGTTATTGGACACCTCCTACAAATTCTAAGTCGGAGTCACCTAGTGCAG”, 3670 fluorescence intensity (a.u.). As to “CTGCAGGCCATGCAGGCGATGCTGTTCCGCTCCACCCGCCCGGAGTCACCTAGTGCAG”, the binding signal is 3410 fluorescence intensity (a.u.). Then “TTTCTAATCGGACGGCGCGCAAGTCCGTGCACTCGTGGCACGGAGTCACCTAGTGCAG”, with 4750 fluorescence intensity (a.u.). Take “CGTTATAGCATGAGCGTCATGGATGATGCATTGTAATGTTCGGAGTCACCTAGTGCAG”: the binding signal was 3980 fluorescence intensity (a.u.). Take “CAAGCCAAGTCTGAAGAAGAAGAACTAGTCATCGCTTGCCCGGAGTCACCTAGTGCAG”: the binding signal is 3820 fluorescence intensity (a.u.). Then “ACCCTCGCCACCGTCCCCGCCTCCGTCGACAGCAGCCCGCCGGAGTCACCTAGTGCAG”, with 3160 fluorescence intensity (a.u.); and “GGGATAGCAGGACACGTGTGTATAGCTGCTGCGCCTGCCTCGGAGTCACCTAGTGCAG”, with 9260 fluorescence intensity (a.u.). As for “CGCCCGCGAAGGCCGCCGCGCCACGCGTGAACTTCTCCTTCGGAGTCACCTAGTGCAG”, the binding signal was 3190 fluorescence intensity (a.u.). As to “GGTCAAATGCCGACGCGGCCTTCGCATGCATATCCGCTTCCGGAGTCACCTAGTGCAG”, the binding signal was 4630 fluorescence intensity (a.u.). Turning to “TCACGAGCCGACACGTGTCTCCTGACGTGGTACCCTTTCCCGGAGTCACCTAGTGCAG”, the binding signal is 21900 fluorescence intensity (a.u.). Regarding “AAATGTGACATCAGCTATGTGGCCAAAAGGGTCCCCTAGGCGGAGTCACCTAGTGCAG”, the binding signal is 3820 fluorescence intensity (a.u.). For the sequence “TGAAATCGTCACCAAACACGTCTTCACCTTCCATAAATCCCGGAGTCACCTAGTGCAG”, the binding signal was 4810 fluorescence intensity (a.u.). For “GAGCGACGACGATGGGAGAGAGCGGGAGGCGGCGGCGGTGCGGAGTCACCTAGTGCAG”, the binding signal is 29800 fluorescence intensity (a.u.). “AATGGTGGGCTAGATGACCTGGATTCAAAATATCACTCCTCGGAGTCACCTAGTGCAG”: the binding signal is 4100 fluorescence intensity (a.u.). In the case of “AAAGAGGCACAGATGTGGATAGTGATGCTAAAGGCAGCTTCGGAGTCACCTAGTGCAG”, the binding signal is 7990 fluorescence intensity (a.u.).

As for “TGAAGTGCACGATAGCGTCGTCCGTTGTGTGACTCATCAGCGGAGTCACCTAGTGCAG”, the binding signal was 5460 fluorescence intensity (a.u.).

On to “TTAGCAACCTATCGTCATAGAGAGACCCAATGAACCCTTGCGGAGTCACCTAGTGCAG”, for which the binding signal was 3860 fluorescence intensity (a.u.). On to “CTCATGTTGTTTGACGGTTTGACTCTCCTAGTTTATCATCCGGAGTCACCTAGTGCAG”, for which the binding signal was 3370 fluorescence intensity (a.u.). Then “TTCGTGCCGTCCTTTTACAATTTTATACGTGTCTTATTACCGGAGTCACCTAGTGCAG”, with 4830 fluorescence intensity (a.u.); and “GTCCATATATCCGATGTGACACGCCAACACTTTTCGTATCCGGAGTCACCTAGTGCAG”, with 4090 fluorescence intensity (a.u.). Turning to “CTCCAACCCGCTCCGTGAGATGACGTCCACACAGTGGGATCGGAGTCACCTAGTGCAG”, the binding signal was 7010 fluorescence intensity (a.u.). Turning to “GATTTCGATTTTGTGGCCTCGATTTTGACTTGAGAAGGCACGGAGTCACCTAGTGCAG”, the binding signal was 3480 fluorescence intensity (a.u.). Turning to “CGACCGTCAACAGTAACGCACCCGCGTCATTCCAATAGAGCGGAGTCACCTAGTGCAG”, the binding signal was 3910 fluorescence intensity (a.u.). “TTTTCATTTTAGTGCCACGTAAGCACCACATCGATGCCACCGGAGTCACCTAGTGCAG”: the binding signal is 41200 fluorescence intensity (a.u.).

As for “CCACAAGTGACCTGTGGCACATGCATCCGTGGCATTGCATCGGAGTCACCTAGTGCAG”, the binding signal is 6070 fluorescence intensity (a.u.). As for “TTTTAGGTTGAGCTGTGACATAATATGTAGCCTGTGCATTCGGAGTCACCTAGTGCAG”, the binding signal is 3860 fluorescence intensity (a.u.).

Take “AGGGTAGTGAGAGAGAGGATGACATGTGGGACCTACATGTCGGAGTCACCTAGTGCAG”: the binding signal was 3540 fluorescence intensity (a.u.). Then “CTTCTTCTTGTGATGCTTATATATGACTATGTATGTAGTGCGGAGTCACCTAGTGCAG”, with 3940 fluorescence intensity (a.u.); and “TATGGACACCATCCTTGTCATTGGGTTAGGACTGGCCTTACGGAGTCACCTAGTGCAG”, with 3630 fluorescence intensity (a.u.); and “CGAGTGGCGCAGGCGACGGCGGCGGTTGCTGAGGTGGGCACGGAGTCACCTAGTGCAG”, with 5180 fluorescence intensity (a.u.). Under “TAACCCATGGCTAGATATATTAATTAAGTTAAGTGAAACCCGGAGTCACCTAGTGCAG” stands 22600 fluorescence intensity (a.u.); under “ACCGGGTTAGCACCGCCACGTCAGCACCACATCAGCAAAACGGAGTCACCTAGTGCAG”, 20000 fluorescence intensity (a.u.). As for “ATTTGATGCATCTCCTTGCGTGCCAGCGTATACCCTCGTCCGGAGTCACCTAGTGCAG”, the binding signal is 4760 fluorescence intensity (a.u.). On to “CCATCCCTTTCACTGTCGTCGCGGCCTCCCTGACCGCGCCCGGAGTCACCTAGTGCAG”, for which the binding signal was 3190 fluorescence intensity (a.u.). With “GTAATCTGTAGTTTCTGTACCCAAGTCACCTCCAACCAGGCGGAGTCACCTAGTGCAG”, the binding signal was 3820 fluorescence intensity (a.u.).
